Results taken from US20020164789A1.
No constants are given. Whether binding was seen depends on the method and setting. Some entries that bind do so weakly or less than the wild type.

Protein sequences, listed by entry. Tags and fused reporters are not part of them. Lines headed by an entry give the natural chain unless they say otherwise; changes in a name come on top. Chains listed by the source or under a name are the forms on record and can include a tag or linker. Residues count along the entry.
UniProt Q91ZX7, residues 20-4545: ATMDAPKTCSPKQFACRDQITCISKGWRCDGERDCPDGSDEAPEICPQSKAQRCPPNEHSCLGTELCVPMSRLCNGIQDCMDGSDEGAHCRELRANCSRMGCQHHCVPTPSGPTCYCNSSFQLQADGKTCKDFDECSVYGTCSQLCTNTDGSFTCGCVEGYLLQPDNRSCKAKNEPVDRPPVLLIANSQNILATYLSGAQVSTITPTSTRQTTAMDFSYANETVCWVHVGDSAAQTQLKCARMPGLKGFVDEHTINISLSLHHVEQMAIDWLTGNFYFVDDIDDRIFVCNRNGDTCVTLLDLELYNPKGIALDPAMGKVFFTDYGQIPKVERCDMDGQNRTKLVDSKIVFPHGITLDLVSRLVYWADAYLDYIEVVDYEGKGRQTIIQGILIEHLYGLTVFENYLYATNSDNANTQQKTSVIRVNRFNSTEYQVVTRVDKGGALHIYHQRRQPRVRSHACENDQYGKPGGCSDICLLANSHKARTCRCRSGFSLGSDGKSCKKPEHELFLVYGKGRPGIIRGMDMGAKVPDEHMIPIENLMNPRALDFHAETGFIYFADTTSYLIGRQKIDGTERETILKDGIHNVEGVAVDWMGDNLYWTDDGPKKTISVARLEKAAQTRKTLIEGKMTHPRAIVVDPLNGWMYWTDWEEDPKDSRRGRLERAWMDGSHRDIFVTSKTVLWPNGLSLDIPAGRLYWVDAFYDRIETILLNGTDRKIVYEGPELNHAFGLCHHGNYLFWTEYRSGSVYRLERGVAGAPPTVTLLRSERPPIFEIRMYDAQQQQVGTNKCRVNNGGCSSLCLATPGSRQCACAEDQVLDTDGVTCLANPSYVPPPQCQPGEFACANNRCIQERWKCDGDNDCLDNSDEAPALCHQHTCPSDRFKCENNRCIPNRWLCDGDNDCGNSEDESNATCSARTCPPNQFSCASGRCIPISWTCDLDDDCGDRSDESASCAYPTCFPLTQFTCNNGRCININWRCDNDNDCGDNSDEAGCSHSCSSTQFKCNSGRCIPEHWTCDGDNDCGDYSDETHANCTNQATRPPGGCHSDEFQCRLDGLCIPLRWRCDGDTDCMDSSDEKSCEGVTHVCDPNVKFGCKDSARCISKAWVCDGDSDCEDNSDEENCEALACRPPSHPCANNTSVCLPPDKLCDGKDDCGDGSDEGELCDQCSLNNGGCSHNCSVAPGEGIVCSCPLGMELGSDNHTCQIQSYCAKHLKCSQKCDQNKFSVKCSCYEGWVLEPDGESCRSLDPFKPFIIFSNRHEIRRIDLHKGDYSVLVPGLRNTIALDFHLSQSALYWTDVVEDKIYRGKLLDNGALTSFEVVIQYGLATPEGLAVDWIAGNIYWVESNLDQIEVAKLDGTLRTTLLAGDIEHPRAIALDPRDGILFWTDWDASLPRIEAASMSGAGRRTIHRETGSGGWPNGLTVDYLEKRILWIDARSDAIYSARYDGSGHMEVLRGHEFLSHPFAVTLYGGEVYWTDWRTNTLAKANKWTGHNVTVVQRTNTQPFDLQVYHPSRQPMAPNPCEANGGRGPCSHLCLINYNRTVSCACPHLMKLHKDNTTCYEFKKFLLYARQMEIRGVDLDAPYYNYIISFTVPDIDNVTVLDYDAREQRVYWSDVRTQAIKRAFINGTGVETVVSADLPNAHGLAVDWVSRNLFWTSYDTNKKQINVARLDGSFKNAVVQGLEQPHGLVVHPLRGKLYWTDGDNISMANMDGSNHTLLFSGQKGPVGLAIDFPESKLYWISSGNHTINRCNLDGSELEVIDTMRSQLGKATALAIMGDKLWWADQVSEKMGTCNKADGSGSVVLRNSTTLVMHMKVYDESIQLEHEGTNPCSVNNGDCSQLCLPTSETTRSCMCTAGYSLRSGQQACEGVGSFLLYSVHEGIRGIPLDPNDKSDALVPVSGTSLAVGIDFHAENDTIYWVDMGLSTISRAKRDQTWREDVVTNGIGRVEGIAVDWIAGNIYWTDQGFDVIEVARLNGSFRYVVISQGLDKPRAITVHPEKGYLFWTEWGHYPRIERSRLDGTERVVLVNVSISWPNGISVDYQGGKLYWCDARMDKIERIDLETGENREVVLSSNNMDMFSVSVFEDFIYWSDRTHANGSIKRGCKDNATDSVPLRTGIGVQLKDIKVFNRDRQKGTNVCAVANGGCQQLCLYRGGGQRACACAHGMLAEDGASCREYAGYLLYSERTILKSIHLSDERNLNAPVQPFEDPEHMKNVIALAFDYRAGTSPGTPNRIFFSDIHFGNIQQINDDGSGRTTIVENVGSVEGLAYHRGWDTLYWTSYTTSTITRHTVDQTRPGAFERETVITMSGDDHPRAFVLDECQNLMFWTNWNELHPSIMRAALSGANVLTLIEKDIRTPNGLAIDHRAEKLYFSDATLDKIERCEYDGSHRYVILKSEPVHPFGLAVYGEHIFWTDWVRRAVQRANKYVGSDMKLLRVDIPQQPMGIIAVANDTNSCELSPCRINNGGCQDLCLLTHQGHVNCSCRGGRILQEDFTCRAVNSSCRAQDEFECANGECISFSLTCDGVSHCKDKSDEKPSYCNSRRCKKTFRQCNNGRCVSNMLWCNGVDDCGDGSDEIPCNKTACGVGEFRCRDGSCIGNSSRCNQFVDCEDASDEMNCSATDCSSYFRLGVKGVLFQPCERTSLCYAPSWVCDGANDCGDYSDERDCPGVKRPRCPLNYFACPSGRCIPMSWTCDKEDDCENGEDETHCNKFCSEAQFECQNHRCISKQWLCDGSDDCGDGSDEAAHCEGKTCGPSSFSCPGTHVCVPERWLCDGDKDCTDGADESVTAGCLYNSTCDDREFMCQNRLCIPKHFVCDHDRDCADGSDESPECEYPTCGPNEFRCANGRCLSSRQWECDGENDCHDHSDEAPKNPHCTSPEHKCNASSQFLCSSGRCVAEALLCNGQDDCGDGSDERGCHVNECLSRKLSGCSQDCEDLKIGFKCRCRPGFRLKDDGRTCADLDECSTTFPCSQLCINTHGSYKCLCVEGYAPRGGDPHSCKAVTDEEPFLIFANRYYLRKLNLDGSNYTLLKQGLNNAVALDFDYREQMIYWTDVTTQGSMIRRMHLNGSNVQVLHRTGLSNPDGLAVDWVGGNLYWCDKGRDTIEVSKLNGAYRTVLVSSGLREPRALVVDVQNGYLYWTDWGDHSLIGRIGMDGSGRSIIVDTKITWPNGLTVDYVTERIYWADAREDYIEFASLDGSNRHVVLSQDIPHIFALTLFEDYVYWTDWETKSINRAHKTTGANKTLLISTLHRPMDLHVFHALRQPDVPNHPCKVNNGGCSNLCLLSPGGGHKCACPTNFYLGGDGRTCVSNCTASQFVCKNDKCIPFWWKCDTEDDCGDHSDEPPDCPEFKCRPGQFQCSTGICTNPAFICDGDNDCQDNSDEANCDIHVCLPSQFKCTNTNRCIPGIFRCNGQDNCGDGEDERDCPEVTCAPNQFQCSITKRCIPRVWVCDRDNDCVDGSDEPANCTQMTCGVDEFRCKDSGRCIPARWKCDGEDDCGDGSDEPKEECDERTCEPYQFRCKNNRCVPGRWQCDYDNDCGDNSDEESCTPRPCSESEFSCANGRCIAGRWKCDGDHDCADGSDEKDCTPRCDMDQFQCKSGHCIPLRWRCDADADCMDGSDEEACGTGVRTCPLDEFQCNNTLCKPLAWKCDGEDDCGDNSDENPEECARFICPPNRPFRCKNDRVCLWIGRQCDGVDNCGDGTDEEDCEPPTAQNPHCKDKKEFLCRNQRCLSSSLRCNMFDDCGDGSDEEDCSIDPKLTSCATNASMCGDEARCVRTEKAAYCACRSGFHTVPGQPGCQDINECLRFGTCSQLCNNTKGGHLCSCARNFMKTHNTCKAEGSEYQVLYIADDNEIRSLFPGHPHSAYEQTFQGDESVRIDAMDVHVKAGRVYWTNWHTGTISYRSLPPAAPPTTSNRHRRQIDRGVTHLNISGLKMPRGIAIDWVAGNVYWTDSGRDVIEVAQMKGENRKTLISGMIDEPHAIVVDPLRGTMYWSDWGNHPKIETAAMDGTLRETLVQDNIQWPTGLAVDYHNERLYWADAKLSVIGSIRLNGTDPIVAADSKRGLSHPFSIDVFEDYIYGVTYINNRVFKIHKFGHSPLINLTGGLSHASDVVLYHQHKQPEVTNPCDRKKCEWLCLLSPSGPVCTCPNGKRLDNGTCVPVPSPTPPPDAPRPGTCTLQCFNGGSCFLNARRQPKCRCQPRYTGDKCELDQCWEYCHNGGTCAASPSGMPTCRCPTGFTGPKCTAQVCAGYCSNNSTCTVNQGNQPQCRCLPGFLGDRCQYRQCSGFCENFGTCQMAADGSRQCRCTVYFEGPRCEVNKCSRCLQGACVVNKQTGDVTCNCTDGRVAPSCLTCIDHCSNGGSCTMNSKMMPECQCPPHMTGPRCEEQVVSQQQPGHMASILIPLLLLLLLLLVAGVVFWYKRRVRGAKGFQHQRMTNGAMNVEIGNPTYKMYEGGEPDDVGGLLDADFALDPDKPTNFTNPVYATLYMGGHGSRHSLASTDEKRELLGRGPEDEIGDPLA
Human recombinant apoE2 (P02649, form named): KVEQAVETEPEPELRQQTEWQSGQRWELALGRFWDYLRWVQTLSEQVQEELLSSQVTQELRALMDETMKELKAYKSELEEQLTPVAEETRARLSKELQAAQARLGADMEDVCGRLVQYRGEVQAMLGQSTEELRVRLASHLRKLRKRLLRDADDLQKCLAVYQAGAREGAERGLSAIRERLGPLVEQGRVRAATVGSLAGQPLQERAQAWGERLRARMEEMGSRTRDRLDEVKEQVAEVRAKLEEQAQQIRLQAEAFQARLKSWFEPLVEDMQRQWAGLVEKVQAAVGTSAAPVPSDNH

Biological target: lipoprotein receptor-related protein (LRP) receptor on murine peritoneal macrophages (mouse) (UniProt Q91ZX7)
Assay: competition with 125I-apoE mimetic peptide on murine peritoneal macrophages, 4 C

For “Human recombinant apoE2 (from UniProt P02649 19-317) (ligand)”, the binding was “binds”.
